{"source": "PubChem BioAssay AID1259289 (Sanger Institute, 2017)", "purpose": "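Find kinases whose loss adds to targeted drugs in killing bowel cancer cells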 (primary screen)", "system": "human LS513 colorectal cancer cells", "reagents": "siRNA pool against human genes", "treatment": "anchor drug BYL719 at 1 µM, cetuximab at 5 µg/ml or trametinib at 10 nM, or DMSO vehicle alone; exposure time not given", "measurement": "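Survival versus non-targeting pool for each arm averaged over replicates, robust z-score in the arm with DMSO only, and synergy scores for BYL719, cetuximab or trametinib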", "direction": "robust z-score, siRNA alone (DMSO): higher = more viable cells; strongly negative means essential", "rule for the call": "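a gene counts as active if its DMSO-only robust z-score falls under -3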", "calls": "active = essential (knock-down alone); inactive = not essential", "note": "In all, the deposit lists 794 reagents; below is a random part of them. Of all reagents, 16 (2%) are marked active. 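Active marks cell loss from silencing alone; drug synergy shows only in the synergy scores, not the calls.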 Not all columns of the deposit are shown. The record does not give: the amount of reagent, the time to read-out."}
{"target gene": "CKS1B (GeneID 1163)", "robust z-score, siRNA alone (DMSO)": 0.561, "activity call": "inactive"}
{"target gene": "PAK2 (GeneID 5062)", "robust z-score, siRNA alone (DMSO)": 0.561, "activity call": "inactive"}
{"target gene": "CDC42BPG (GeneID 55561)", "robust z-score, siRNA alone (DMSO)": 0.561, "activity call": "inactive"}
{"target gene": "MPP3 (GeneID 4356)", "robust z-score, siRNA alone (DMSO)": -1.02, "activity call": "inactive"}
{"target gene": "HASPIN (GeneID 83903)", "robust z-score, siRNA alone (DMSO)": -0.493, "activity call": "inactive"}
{"target gene": "IPMK (GeneID 253430)", "robust z-score, siRNA alone (DMSO)": 0.561, "activity call": "inactive"}
{"target gene": "CSNK1G1 (GeneID 53944)", "robust z-score, siRNA alone (DMSO)": 0.561, "activity call": "inactive"}
{"target gene": "CAMK2G (GeneID 818)", "robust z-score, siRNA alone (DMSO)": 0.0302, "activity call": "inactive"}
{"target gene": "RUNX1 (GeneID 861)", "robust z-score, siRNA alone (DMSO)": -2.74, "activity call": "inactive"}
{"target gene": "PIM1 (GeneID 5292)", "robust z-score, siRNA alone (DMSO)": -0.593, "activity call": "inactive"}
{"target gene": "DGKB (GeneID 1607)", "robust z-score, siRNA alone (DMSO)": -2.21, "activity call": "inactive"}
{"target gene": "ABL2 (GeneID 27)", "robust z-score, siRNA alone (DMSO)": 0.561, "activity call": "inactive"}
{"target gene": "PI4K2B (GeneID 55300)", "robust z-score, siRNA alone (DMSO)": 0.561, "activity call": "inactive"}
{"target gene": "CDK1 (GeneID 983)", "robust z-score, siRNA alone (DMSO)": 0.561, "activity call": "inactive"}
{"target gene": "MAPK7 (GeneID 5598)", "robust z-score, siRNA alone (DMSO)": 0.561, "activity call": "inactive"}
{"target gene": "DCLK3 (GeneID 85443)", "robust z-score, siRNA alone (DMSO)": 0.561, "activity call": "inactive"}
{"target gene": "HK3 (GeneID 3101)", "robust z-score, siRNA alone (DMSO)": 0.561, "activity call": "inactive"}
{"target gene": "NEK10 (GeneID 152110)", "robust z-score, siRNA alone (DMSO)": 0.00998, "activity call": "inactive"}
{"target gene": "PHKG2 (GeneID 5261)", "robust z-score, siRNA alone (DMSO)": 0.561, "activity call": "inactive"}
{"target gene": "NME5 (GeneID 8382)", "robust z-score, siRNA alone (DMSO)": 0.561, "activity call": "inactive"}
{"target gene": "TRIO (GeneID 7204)", "robust z-score, siRNA alone (DMSO)": 0.561, "activity call": "inactive"}
{"target gene": "GNE (GeneID 10020)", "robust z-score, siRNA alone (DMSO)": 0.561, "activity call": "inactive"}

Continued; the last 5 above are carried over.
{"target gene": "NEK10 (GeneID 152110)", "robust z-score, siRNA alone (DMSO)": 0.00998, "activity call": "inactive"}
{"target gene": "PHKG2 (GeneID 5261)", "robust z-score, siRNA alone (DMSO)": 0.561, "activity call": "inactive"}
{"target gene": "NME5 (GeneID 8382)", "robust z-score, siRNA alone (DMSO)": 0.561, "activity call": "inactive"}
{"target gene": "TRIO (GeneID 7204)", "robust z-score, siRNA alone (DMSO)": 0.561, "activity call": "inactive"}
{"target gene": "GNE (GeneID 10020)", "robust z-score, siRNA alone (DMSO)": 0.561, "activity call": "inactive"}
{"target gene": "STK38L (GeneID 23012)", "robust z-score, siRNA alone (DMSO)": 0.132, "activity call": "inactive"}
{"target gene": "STRADB (GeneID 55437)", "robust z-score, siRNA alone (DMSO)": -0.115, "activity call": "inactive"}
{"target gene": "PRKD3 (GeneID 23683)", "robust z-score, siRNA alone (DMSO)": 0.561, "activity call": "inactive"}
{"target gene": "JAK3 (GeneID 3718)", "robust z-score, siRNA alone (DMSO)": 0.561, "activity call": "inactive"}
{"target gene": "CDC42BPB (GeneID 9578)", "robust z-score, siRNA alone (DMSO)": 0.561, "activity call": "inactive"}
{"target gene": "SPHK2 (GeneID 56848)", "robust z-score, siRNA alone (DMSO)": 0.561, "activity call": "inactive"}
{"target gene": "NME2 (GeneID 4831)", "robust z-score, siRNA alone (DMSO)": 0.561, "activity call": "inactive"}
{"target gene": "PRKAR1A (GeneID 5573)", "robust z-score, siRNA alone (DMSO)": 0.561, "activity call": "inactive"}
{"target gene": "STRADA (GeneID 92335)", "robust z-score, siRNA alone (DMSO)": -0.814, "activity call": "inactive"}
{"target gene": "VRK1 (GeneID 7443)", "robust z-score, siRNA alone (DMSO)": 0.561, "activity call": "inactive"}
{"target gene": "NME7 (GeneID 29922)", "robust z-score, siRNA alone (DMSO)": 0.561, "activity call": "inactive"}
{"target gene": "MAP3K1 (GeneID 4214)", "robust z-score, siRNA alone (DMSO)": 0.561, "activity call": "inactive"}
{"target gene": "PTK6 (GeneID 5753)", "robust z-score, siRNA alone (DMSO)": 0.561, "activity call": "inactive"}
{"target gene": "SIK1 (GeneID 150094)", "robust z-score, siRNA alone (DMSO)": 0.561, "activity call": "inactive"}
